Measurements: the supplement of paper PMC4604168 (melanoma cell lines)
Some of the results follow. Single values are uncertain, as repeats are few or missing.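 Cells were imaged in 1,536-well plates, and nuclei stained with an antibody against cleaved PARP were counted against all DNA-stained nuclei to give the apoptosis fraction. Screening doses were chosen to leave most cells alive, and resting and induced cleaved-PARP levels differ strongly between cell lines.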

Tested on: G361
Experiment: cleaved PARP positive nuclei fraction relative to DMSO control; melanoma cells; higher = more apoptosis
Settings: library dose: low library concentration; 72 h

| SMILES | cleaved PARP positive nuclei fraction [%] |
| --- | --- |
| OCCn1cc(-c2cnc3nnn(Cc4ccc5ncccc5c4)c3n2)cn1 + Oc1cc(-c2nc(-c3ccccc3)[nH]c2-c2ccncc2)ccc1Cl [L779450] (first compound 1 µM, partner dose 0.2 µM) | 127 |
| CO[C@@H]1[C@H](N(C)C(=O)c2ccccc2)C[C@H]2O[C@]1(C)n1c3ccccc3c3c4c(c5c6ccccc6n2c5c31)C(=O)NC4 [Midostaurin] + O=C(Nc1ccccc1)c1cc([N+](=O)[O-])ccc1Cl [GW9662] (first compound 0.08 µM, partner dose 2 µM) | 114 |
| CC1(C)NC(=O)N(c2ccc([N+](=O)[O-])c(C(F)(F)F)c2)C1=O [nilutamide] + COC(=O)c1sccc1S(=O)(=O)Nc1ccc(Nc2ccccc2)cc1OC [GSK0660] (first compound 1 µM, partner dose 1 µM) | 152 |
| Cc1nc(Nc2ncc(C(=O)Nc3c(C)cccc3Cl)s2)cc(N2CCN(CCO)CC2)n1 [dasatanib] + Cc1cc([N+](=O)[O-])ccc1NS(=O)(=O)c1cc(Cl)ccc1Cl [FH535] (first compound 0.004 µM, partner dose 1 µM) | 66 |
| C[C@@H]1CCN(C(=O)CC#N)C[C@@H]1N(C)c1ncnc2[nH]ccc12 + O=C(Nc1ccccc1)c1cc([N+](=O)[O-])ccc1Cl [GW9662] (first compound 1 µM, partner dose 2 µM) | 105 |
| C=CCn1c(=O)c2cnc(Nc3ccc(N4CCN(C)CC4)cc3)nc2n1-c1cccc(C(C)(C)O)n1 + O=c1cc(-c2cccc3c2Sc2ccccc2S3)oc(N2CCOCC2)c1 [KU55933] (first compound 0.02 µM, partner dose 1 µM) | 60.4 |
| Cc1ccc(NC(=O)c2cccc(N(C)C)c2)cc1NC(=O)c1ccc(O)cc1 + N#Cc1c(O)c2c(-c3ccc(-c4ccccc4O)cc3)csc2[nH]c1=O [A769662] (first compound 2 µM, partner dose 2 µM) | 64.7 |
| Cc1cc(N2CCOCC2)cc2[nH]c(-c3c(NC[C@@H](O)c4cccc(Cl)c4)cc[nH]c3=O)nc12 + O=C(O)C(=O)Nc1sc2c(c1C(=O)O)CCNC2 [TCS401] (first compound 0.2 µM, partner dose 1.66667 µM) | 60.3 |
| C=CCn1c(=O)c2cnc(Nc3ccc(N4CCN(C)CC4)cc3)nc2n1-c1cccc(C(C)(C)O)n1 + CCN(CC)CCCCNc1ncc2cc(-c3cc(OC)cc(OC)c3)c(NC(=O)NC(C)(C)C)nc2n1 [PD173074] (first compound 0.02 µM, partner dose 0.1 µM) | 218 |
| Cc1cc(N2CCOCC2)cc2[nH]c(-c3c(NC[C@@H](O)c4cccc(Cl)c4)cc[nH]c3=O)nc12 + O=c1cc(-c2cccc3c2Sc2ccccc2S3)oc(N2CCOCC2)c1 [KU55933] (first compound 0.2 µM, partner dose 1 µM) | 59 |
| C#Cc1cccc(Nc2ncnc3cc(OCCOC)c(OCCOC)cc23)c1 [erlotinib] + O=c1cc(-c2cccc3c2Sc2ccccc2S3)oc(N2CCOCC2)c1 [KU55933] (first compound 0.8 µM, partner dose 1 µM) | 80.2 |
| Cn1c(Nc2ccc(C(F)(F)F)cc2)nc2cc(Oc3ccnc(-c4ncc(C(F)(F)F)[nH]4)c3)ccc21 + O=C1NC(=O)/C(=C/c2ccc(-c3ccc(F)cc3O)o2)S1 [AS252424] (first compound 0.08 µM, partner dose 1 µM) | 177 |
| NC(=O)Nc1cc(-c2cccc(F)c2)sc1C(=O)N[C@H]1CCCNC1 + CCCCCCCCCCCC1=C(O)C(=O)C=C(O)C1=O [Embelin] (first compound 0.02 µM, partner dose 1.2 µM) | 162 |
| C=CCn1c(=O)c2cnc(Nc3ccc(N4CCN(C)CC4)cc3)nc2n1-c1cccc(C(C)(C)O)n1 + COc1cc2ncnc(Nc3ccc(Oc4ccccc4)cc3)c2cc1OC [SrcI1] (first compound 0.02 µM, partner dose 2 µM) | 65.5 |
| Cn1c(Nc2ccc(C(F)(F)F)cc2)nc2cc(Oc3ccnc(-c4ncc(C(F)(F)F)[nH]4)c3)ccc21 + N#Cc1c(O)c2c(-c3ccc(-c4ccccc4O)cc3)csc2[nH]c1=O [A769662] (first compound 0.08 µM, partner dose 2 µM) | 145 |

Pulled one by one from the list above, 2 records:

| SMILES | cleaved PARP positive nuclei fraction [%] |
| --- | --- |
| C=CCn1c(=O)c2cnc(Nc3ccc(N4CCN(C)CC4)cc3)nc2n1-c1cccc(C(C)(C)O)n1 + CCN(CC)CCCCNc1ncc2cc(-c3cc(OC)cc(OC)c3)c(NC(=O)NC(C)(C)C)nc2n1 [PD173074] (first compound 0.02 µM, partner dose 0.1 µM) | 218 |
| Cn1c(Nc2ccc(C(F)(F)F)cc2)nc2cc(Oc3ccnc(-c4ncc(C(F)(F)F)[nH]4)c3)ccc21 + N#Cc1c(O)c2c(-c3ccc(-c4ccccc4O)cc3)csc2[nH]c1=O [A769662] (first compound 0.08 µM, partner dose 2 µM) | 145 |
